Reference: the supplement of paper PMC6078165
Values are relative to the signal before dosing, not to a vehicle control; the signal also falls without drug.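 Fibroblast labels name human fibroblasts: mostly primary ones from tissues such as uterus (C12385, HUF), lung (H6013), bone (Hs27A), adrenal (HADF) and skin (WS1), plus mammary HMF and breast cancer-associated Hs343T. The cancer cells are basal-like or mesenchymal-like triple-negative breast cancer lines. The paper calls a changed response a hit when it shifts by more than 3x the replicate standard deviation. The tissue of the other fibroblasts is not given here.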 Numbered stars: 1 amine (or outer) side, 2 acyl side, 3 side chain; on linkers, the order of the positions; unused ones are H or OH. Bridge positions count the residues as written; N and C are the ends. Square brackets hold non-standard residues; d marks the D form. Peptide text beside a SMILES is read from it. I, II: the chains in the order shown. Actinocin(9to1) = Cc1c2oc3c(C)ccc(C(=O)[*:1])c3nc-2c(C(=O)[*:2])c(N)c1=O; NMeV = CN[C@H](C(=O)O)C(C)C; Sar = CNCC(=O)O

System: HCC1143
Experiment: relative JC-1 red fluorescence (viability) vs pre-drug, coculture with fibroblast (fraction); higher = more viable cancer cells
Method: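 JC-1 labelled TNBC cells cocultured 1:1 (1,500 cells each) with CellTrace Violet stained primary or stromal fibroblasts in 384-well plates in FluoroBrite medium, treated with one of 42 anticancer drugs at 0.1, 1, 10 or 100 uM. JC-1 red fluorescence (mitochondrial integrity in cancer cells only) was read by plate reader every 8 h for 72 h. Values are normalised to each well's pre-drug value. The stock of one drug was tenfold lower, so its dose labels may be too high.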

Cc1c2oc3c(C)ccc(C(=O)N[C@@H]4C(=O)N[C@H](C(C)C)C(=O)N5CCC[C@H]5C(=O)N(C)CC(=O)N(C)[C@@H](C(C)C)C(=O)O[C@@H]4C)c3nc-2c(C(=O)N[C@@H]2C(=O)N[C@H](C(C)C)C(=O)N3CCC[C@H]3C(=O)N(C)CC(=O)N(C)[C@@H](C(C)C)C(=O)O[C@@H]2C)c(N)c1=O [Dactinomycin] (I: T[dV]P[Sar][NMeV] / II: T[dV]P[Sar][NMeV]; ester I:1-I:C, II:1-II:C; linker I:N-II:N via Actinocin(9to1))
relative JC-1 red fluorescence
Details	8 h	16 h	24 h	32 h	40 h	48 h	56 h	64 h	72 h
0.1 µM, coculture fibroblast: C12385	0.84	0.808	0.781	0.746	0.683	0.686	0.685	0.674	0.683
0.1 µM, coculture fibroblast: H6013	0.763	0.7021	0.657	0.6299	0.581	0.581	0.563	0.555	0.49
0.1 µM, coculture fibroblast: H6019	0.815	0.724	0.681	0.646	0.615	0.608	0.578	0.569	0.558
0.1 µM, coculture fibroblast: H6076	0.81051	0.785	0.732	0.686	0.6334	0.63	0.618	0.598	0.622
0.1 µM, coculture fibroblast: H6231	0.809	0.871	0.776	0.627	0.672	0.623	0.567	0.518	0.486
0.1 µM, coculture fibroblast: HADF	0.773	0.743	0.721	0.708	0.62	0.615	0.596	0.594	0.534
0.1 µM, coculture fibroblast: HCFa	0.821	0.746	0.713	0.682	0.622	0.627	0.602	0.6031	0.529
0.1 µM, coculture fibroblast: HCPF	0.8135	0.85	0.797	0.692	0.717	0.696	0.673	0.648	0.65
0.1 µM, coculture fibroblast: HHSteC	0.847	0.794	0.746	0.695	0.635	0.627	0.596	0.581	0.502
0.1 µM, coculture fibroblast: HMF	0.78	0.804	0.705	0.629	0.61	0.56	0.51	0.483	0.468
0.1 µM, coculture fibroblast: HPFa	0.893	0.834	0.834	0.749	0.698	0.692	0.646	0.62	0.6
0.1 µM, coculture fibroblast: HUF	0.885	0.823	0.7193	0.636	0.577	0.564	0.536	0.522	0.513
0.1 µM, coculture fibroblast: Hs5	0.859	0.849	0.817	0.815	0.7394	0.721	0.703	0.687	0.703
0.1 µM, coculture fibroblast: Hs27A	0.741	0.697	0.665	0.673	0.59	0.62	0.594	0.598	0.533
0.1 µM, coculture fibroblast: Hs343T	0.825	0.85	0.792	0.703	0.6704	0.619	0.578	0.555	0.531
0.1 µM, coculture fibroblast: WS1	0.7932	0.7247	0.673	0.617	0.586	0.579	0.559	0.546	0.54
1 µM, coculture fibroblast: C12385	0.781	0.699	0.637	0.57	0.517	0.507	0.498	0.482	0.49
1 µM, coculture fibroblast: H6013	0.675	0.571	0.517	0.474	0.429	0.431	0.414	0.407	0.353
1 µM, coculture fibroblast: H6019	0.7586	0.654	0.5965	0.526	0.47	0.456	0.414	0.398	0.3889
1 µM, coculture fibroblast: H6076	0.794	0.731	0.709	0.714	0.647	0.647	0.627	0.61	0.632
1 µM, coculture fibroblast: H6231	0.774	0.735	0.654	0.633	0.562	0.543	0.512	0.498	0.5
1 µM, coculture fibroblast: HADF	0.737	0.675	0.622	0.604	0.519	0.501	0.47	0.454	0.402
1 µM, coculture fibroblast: HCFa	0.754	0.665	0.621	0.587	0.528	0.512	0.49	0.475	0.428
1 µM, coculture fibroblast: HCPF	0.7774	0.785	0.737	0.6656	0.658	0.625	0.583	0.5615	0.561
1 µM, coculture fibroblast: HHSteC	0.806	0.72	0.672	0.621	0.557	0.543	0.513	0.494	0.437
1 µM, coculture fibroblast: HMF	0.774	0.77061	0.712	0.6729	0.641	0.622	0.592	0.566	0.554
1 µM, coculture fibroblast: HPFa	0.835	0.711	0.659	0.579	0.535	0.538	0.511	0.51	0.501
1 µM, coculture fibroblast: HUF	0.814	0.743	0.684	0.618	0.567	0.554	0.516	0.507	0.497
1 µM, coculture fibroblast: Hs5	0.863	0.884	0.83	0.785	0.73	0.686	0.663	0.639	0.643
1 µM, coculture fibroblast: Hs27A	0.684	0.601	0.556	0.556	0.47	0.491	0.461	0.457	0.385
1 µM, coculture fibroblast: Hs343T	0.787	0.793	0.729	0.665	0.635	0.605	0.57	0.558	0.548
1 µM, coculture fibroblast: WS1	0.775	0.6645	0.589	0.518	0.461	0.436	0.402	0.387	0.372
